Reference: PubChem BioAssay AID1259425 (University of Nebraska Medical Center, 2018)

Test: 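Seek colon cancer weak points whose silencing resembles KSR1 loss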 (primary screen)
Cells: HCT116 human colon cancer cells
Reagents: siRNA pool against human genes, 50 nM siRNA
Measurement: 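After 50 nM siRNA pool, branched-DNA assay measures six marker transcripts per well, minus blank, normalised to the geometric mean of two housekeeping transcripts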
Scale: BNIP3L mRNA: higher = more BNIP3L transcript after knockdown; NDRG1 mRNA: higher = more NDRG1 transcript after knockdown
The whole screen tested about 14,000 reagents; below is a part drawn at random. Further read-outs or replicates are left out here. Not given: the time to read-out.

gene | BNIP3L mRNA, set 1 | NDRG1 mRNA, set 1
RHO (rhodopsin) | 0.122 | 0.245
TGFBRAP1 | 0.0583 | 0.113
AHCYL2 (adenosylhomocysteinase like 2) | 0.0878 | 0.181
H19 (H19 imprinted maternally expressed transcript) | 0.117 | 0.191
IKBKG | 0.136 | 0.27
FTSJ1 (FtsJ RNA 2'-O-methyltransferase 1) | 0.127 | 0.549
KRR1 (KRR1 small subunit processome component) | 0.159 | 0.135
ZSCAN10 (zinc finger and SCAN domain containing 10) | 0.0378 | 0.054
TIPIN (TIMELESS interacting protein) | 0.116 | 0.178
EPDR1 (ependymin related 1) | 0.156 | 0.0657
SSUH2 (ssu-2 homolog) | 0.132 | 0.163
NPAS1 (neuronal PAS domain protein 1) | 0.0556 | 0.209
METTL9 (methyltransferase 9, His-X-His N1(pi)-histidine) | 0.128 | 0.0942

The list goes on (2 carried over from the part before).
gene | BNIP3L mRNA, set 1 | NDRG1 mRNA, set 1
NPAS1 (neuronal PAS domain protein 1) | 0.0556 | 0.209
METTL9 (methyltransferase 9, His-X-His N1(pi)-histidine) | 0.128 | 0.0942
HOXC4 (homeobox C4) | 0.0518 | 0.214
MAPRE1 (microtubule associated protein RP/EB family member 1) | 0.104 | 0.163
RAB29 (RAB29, member RAS oncogene family) | 0.136 | 0.209
TMPRSS11E (transmembrane serine protease 11E) | 0.146 | 0.303
THBS2 (thrombospondin 2) | 0.106 | 0.284
PPBP (pro-platelet basic protein) | 0.0766 | 0.0588
STK39 (serine/threonine kinase 39) | 0.183 | 0.16
